Reference: PubChem BioAssay AID686937 (Drosophila RNAi Screening Center, 2013)

Purpose: 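Knock-downs that reduce output of a secreted reporter enzyme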 (primary screen)
Cell system: Drosophila S2 cells expressing secreted horseradish peroxidase
Knock-down reagent: long dsRNA against Drosophila genes
Time to read-out: about 5.5 days (5 days dsRNA, then 12 h reporter induction)
Challenge: reporter expression induced after 5 days of dsRNA, read 12 h later; inducer not stated
Measured: 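After 5 days of dsRNA and 12 h of reporter induction, medium peroxidase read by chemiluminescence and scored as per-plate z-score; higher values mean more reporter released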
Reading the numbers: z-score: higher = more reporter secreted into medium
In all, the deposit lists about 23,000 reagents; shown is a random part of those with a known target gene and a result. 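Reduced-secretion tags in replicate 1 do not always agree with the z-scores; no criterion for assigning the tags was given.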 Names joined by + are all predicted targets of the reagent. Reagent sequences are not shown. Not given: the amount of reagent.

Knock-down of btl (breathless) [DRSC11331] gave: z-score, replicate 1 = 0.2; z-score, replicate 2 = 0.29. RhoGEF4 (Rho guanine nucleotide exchange factor 4) [DRSC11011] showed z-score, replicate 1 = 0.25; z-score, replicate 2 = 0.22. For mRpS2 (mitochondrial ribosomal protein S2) [DRSC00550] the deposit lists z-score, replicate 1 = -0.23; z-score, replicate 2 = 0.19. With knock-down of CG12869 [DRSC06208], the screen gave z-score, replicate 1 = -0.01; z-score, replicate 2 = 0.02. Against Hakai [DRSC02031], the entry reads z-score, replicate 1 = 0.32; z-score, replicate 2 = 0.3. Silencing of Amt (Ammonium transporter) [DRSC16055] came out at: z-score, replicate 1 = 0.28; z-score, replicate 2 = 0.24.

Against Inx2 (Innexin 2) [DRSC18783] the deposit lists z-score, replicate 1 = 0.29; z-score, replicate 2 = 0.61. Against CG17327 [DRSC15225] the deposit lists z-score, replicate 1 = 0.62; z-score, replicate 2 = 0.11. After knock-down of CG7536 [DRSC20050], the screen gave z-score, replicate 1 = 0.31; z-score, replicate 2 = 0.32. With knock-down of CG12811 [DRSC14549] the results were z-score, replicate 1 = 0.51; z-score, replicate 2 = 0.53. With knock-down of dwg (deformed wings) [DRSC18766] the results were z-score, replicate 1 = 0.41; z-score, replicate 2 = 0.16. For MFS3 (Major Facilitator Superfamily Transporter 3) [DRSC00664], the entry reads z-score, replicate 1 = 0.23; z-score, replicate 2 = 0.29.

For CG17145 [DRSC10247] the deposit lists z-score, replicate 1 = -1.5; z-score, replicate 2 = 0.61. With knock-down of GstT1 (Glutathione S transferase T1) [DRSC06243], the screen gave z-score, replicate 1 = 0.22; z-score, replicate 2 = 0.27. Against Mocs2A + Mocs2B [DRSC13697], the entry reads z-score, replicate 1 = 0.66; z-score, replicate 2 = 0.26. Mocs2A + Mocs2B [DRSC14219] showed z-score, replicate 1 = 0.06; z-score, replicate 2 = 0.06.

Look-ups from the entries so far:
For “z-score, replicate 1”, Mocs2A + Mocs2B [DRSC13697] reads 0.66
Result of CG7536 [DRSC20050] under “z-score, replicate 1”: 0.31
